This test has as its system BDF1 mice, P388 leukemia ip, median survival T/C. The experiment in a line: NCI In Vivo Anticancer Drug Screen. Data for tumor model P388 Leukemia (intraperitoneal) in B6D2F1 (BDF1) mice. To be noted: T/C endpoint: median survival time, higher T/C = longer survival. A digest of the protocol: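 In tumour-bearing mice, survival after compound treatment is set against the vehicle group and given as a quotient.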

[1] abbreviates: dose: 25.0 mg/kg/injection, schedule: Q01DX009 (ip), vehicle: saline with Tween-80.
[2] abbreviates: dose: 100.0 mg/kg/injection, schedule: Q01DX009 (ip), vehicle: saline with Tween-80.
Where [3] appears, read: dose: 200.0 mg/kg/injection, schedule: Q01DX009 (ip), vehicle: saline with Tween-80.
[4] abbreviates: dose: 100.0 mg/kg/injection, schedule: Q01DX001 (ip), vehicle: saline with Tween-80.
The mark [5] stands for this setting: dose: 200.0 mg/kg/injection, schedule: Q01DX001 (ip), vehicle: saline with Tween-80.
The mark [6] stands for this setting: dose: 400.0 mg/kg/injection, schedule: Q01DX001 (ip), vehicle: saline with Tween-80.
[7] abbreviates: dose: 50.0 mg/kg/injection, schedule: Q01DX009 (ip), vehicle: Klucel (hydroxypropylcellulose) (HPC).

The list does not hold the whole screen: it gathers tests that were run many times, whatever their T/C, doses with no T/C, and many T/C values between a quarter and a half above the control. Other doses and runs of a compound stand elsewhere. T/C gives the treated animals as a percentage of the vehicle group. Some doses have a count of surviving animals in place of a T/C: the source holds a T/C of zero for them, seemingly a mark for toxic or unscored doses. Some survivor counts are full or nearly so, which does not show that the dose was tolerated: the source hardly ever lists a survival T/C far under the control, and the zero likely stands for such cases as well. Survivors were counted at the toxicity check, usually on the fifth day, unless a day is given; later deaths do not show. Schedules are NCI's codes, taken here to give the interval after Q, in days (D) or hours (H), and the number of doses after X. For survival time, this PubChem deposit counts one and a half times the control or more as active, and values a quarter to a half above the control carry no call in these data; other NCI protocols may use other cut-offs. Some entries hold several experiments; their values stand side by side, smallest first.

Regarding `BrC1c2cccc3cccc(c23)C1Br` (centres undefined), the T/C under setting [1] was 144 % of control; the T/C (dose: 50.0 mg/kg/injection, schedule: Q01DX009 (ip), vehicle: saline with Tween-80) is 144 and 147 % of control; the T/C under setting [2] is 141 % of control. For the same compound, the survivor count under setting [3] is 6 of 6.

For `C=C1C(=O)OC2CC(C)/C=C\C(=O)C(C)(O)C(O)C(O)C12` (centres undefined) (tested in a mixture with another compound), the survivor count reads like this: under setting [4], 1 of 6; under setting [5], 0 of 6; under setting [6], 0 of 6.

`O=C(COc1cc(Cl)c(Cl)cc1Cl)OCCOc1cc(Cl)c(Cl)cc1Cl`: the survivor count (dose: 6.25 mg/kg/injection, schedule: Q01DX009 (ip), vehicle: saline with Tween-80) is listed as 6 of 6; the survivor count (dose: 12.5 mg/kg/injection, schedule: Q01DX009 (ip), vehicle: saline with Tween-80) is 6 of 6; the survivor count (dose: 25.0 mg/kg/injection, schedule: Q04DX003 (ip), vehicle: saline with Tween-80) is given as 6 of 6; the survivor count (dose: 50.0 mg/kg/injection, schedule: Q04DX003 (ip), vehicle: saline with Tween-80) is 6 of 6.

`Cc1ncc(CO)c(C2NOCc3ccc(Cl)cc32)c1O` (centres undefined): the survivor count under setting [7] is given as 1 of 6.

On to `CCOC(=O)CNC(=O)Sc1ccc(C(C)(C)C)cc1`, for which the T/C by setting is: under setting [7], 128 % of control; (dose: 100.0 mg/kg/injection, schedule: Q01DX009 (ip), vehicle: Klucel (hydroxypropylcellulose) (HPC)) 136 % of control.

Turning to `C[C@]12CCC(=O)C=C1CC[C@@H]1[C@@H]2CC[C@@]2(C)[C@H]1CC[C@]2(C)O`, under “dose: 400.0 mg/kg/injection, schedule: Q01DX009 (sc), vehicle: steroid suspending solution”, the survivor count is 3 of 6.

For `Cn1ncc2c(N)c(C#N)c(=O)[nH]c21`, the survivor count by setting is: under setting [5], 0 of 6; under setting [6], 3 of 6.

As for `O=[N+]([O-])c1ccc(Sc2ccc(Cl)cc2)c2nonc12`, the survivor count was 3 of 7 under setting [1] and 2 of 7 under setting [2].

Turning to `COCc1cnc2nc(N)nc(N)c2n1`, the survivor count is listed as 1 of 3 (dose: 6.25 mg/kg/injection, schedule: Q01DX009 (ip), vehicle: other); 0 of 3 (dose: 12.5 mg/kg/injection, schedule: Q01DX009 (ip), vehicle: other); 0 of 3 (dose: 25.0 mg/kg/injection, schedule: Q01DX009 (ip), vehicle: other); 0 of 3 (dose: 50.0 mg/kg/injection, schedule: Q01DX009 (ip), vehicle: other).

In the case of `CC1OC2CC(=O)OC2C2=C1C(=O)c1c(O)c3c(c(O)c1C2=O)C1CC(O)C3(O)C(C)O1` (centres undefined), the survivor count (dose: 20.0 mg/kg/injection, schedule: Q01DX010 (ip), vehicle: saline) is on record as 1 of 6.

As for `C[N+](C)(C)Cc1ccccc1`, where the note is “dose: 100.0 mg/kg/injection, schedule: Q04DX003 (ip), vehicle: saline with Tween-80”, the survivor count was 0 of 6.

Take `Cn1c(-c2ccccc2)c2c(c1-c1ccccc1)CCCC2`: the survivor count (dose: 400.0 mg/kg/injection, schedule: Q04DX002 (ip), vehicle: saline with Tween-80) is recorded as 6 of 6.

With `O.Oc1ccccc1C=NCCC[N-]CCCN=Cc1ccccc1O.[Co]`, the survivor count under setting [2] was 0 of 6 and the survivor count under setting [3] is given as 3 of 6.

`CCC/C=C/C=C/C1CC(O)C(O)C(=O)C1C=O` (centres undefined): the survivor count under setting [2] is recorded as 0 of 6.

Turning to `Cc1nc(-c2ccc(N=Cc3ccc(N(CCOS(C)(=O)=O)CCOS(C)(=O)=O)cc3C)cc2)cs1`, the T/C (dose: 37.5 mg/kg/injection, schedule: Q01DX009 (ip), vehicle: Klucel (hydroxypropylcellulose) (HPC)) was 133 % of control.

On to `CN(c1ccccc1)c1ccc([N+](=O)[O-])c2no[n+]([O-])c12`, for which, under “dose: 60.0 mg/kg/injection, schedule: Q01DX009 (ip), vehicle: saline with Tween-80”, the T/C was 131 % of control.

As for `CCCCOP(=S)(N1CC1)N1CC1`, the T/C reads like this: (dose: 4.4 mg/kg/injection, schedule: Q01DX009 (ip), vehicle: saline with Tween-80) 133 % of control; (dose: 6.0 mg/kg/injection, schedule: Q04DX003 (ip), vehicle: saline with Tween-80) 128 % of control; (dose: 9.0 mg/kg/injection, schedule: Q04DX003 (ip), vehicle: saline with Tween-80) 128 % of control; (dose: 16.5 mg/kg/injection, schedule: Q01DX009 (ip), vehicle: saline with Tween-80) 148 % of control; under setting [1], 130 % of control. For the same compound, the survivor count under setting [2] was 4 of 6; the survivor count under setting [3] is 0 of 6; the survivor count (dose: 400.0 mg/kg/injection, schedule: Q04DX003 (ip), vehicle: saline with Tween-80) is 4 of 6.

For the compound `NCCO/C=C/C(N)C(=O)O` (centres undefined), the T/C (dose: 6.25 mg/kg/injection, schedule: Q01DX009 (ip), vehicle: saline) was 136 % of control.

On to `Cc1cc(N(C)C)ccc1C=O`, for which the survivor count (dose: 200.0 mg/kg/injection, schedule: Q04DX003 (ip), vehicle: Klucel (hydroxypropylcellulose) (HPC)) was 6 of 6.

Regarding `CCC[CH2][Sn]([CH2]CCC)([O]S(=O)c1ccccc1)[O]S(=O)c1ccccc1` (centres undefined), the survivor count by setting is: under setting [4], 0 of 6; under setting [5], 0 of 6; under setting [6], 0 of 6.

Turning to `C[n+]1ccc(/C=N/O)cc1`, the survivor count (dose: 25.0 mg/kg/injection, schedule: Q04DX003 (ip), vehicle: saline) is recorded as 3 of 6; the survivor count (dose: 50.0 mg/kg/injection, schedule: Q04DX003 (ip), vehicle: saline) is 1 of 6; the survivor count (dose: 400.0 mg/kg/injection, schedule: Q04DX003 (ip), vehicle: saline) is given as 6 of 6.

For the compound `CC(=O)C(C)=P(c1ccccc1)(c1ccccc1)c1ccccc1`, the survivor count (dose: 100.0 mg/kg/injection, schedule: Q01DX009 (ip), vehicle: saline) is 3 of 6.

As for `CCN1c2ccccc2C(Cl)(c2ccc(N(C)C)cc2)c2ccccc21`, the T/C (dose: 15.0 mg/kg/injection, schedule: Q01DX009 (ip), vehicle: saline) was 131 % of control.

The values are drawn from PubChem BioAssay AID328 (DTP/NCI, 2004).
